Experimental data as given in US20110201048A1, “SCREENING METHOD OF THERAPEUTIC AND DIAGNOSTIC AGENTS FOR TNF-ALPHA-INDUCED DISEASES USING REACTIVE OXYGEN SPECIES MODULATOR 1” (KOREA UNIVERSITY RESEARCH AND BUSINESS FOUNDATION, priority 2009, published 2011).
These are yes or no findings as the source states them, for the method shown. Binding seen in cells or lysates may run through a third protein. Some binding calls cover weakened binding; strength is not graded here. Tags and fused reporters may be left off the sequences shown.

By UniProt entry, the sequences of proteins in these tests, tags left out.
UniProt Q07817: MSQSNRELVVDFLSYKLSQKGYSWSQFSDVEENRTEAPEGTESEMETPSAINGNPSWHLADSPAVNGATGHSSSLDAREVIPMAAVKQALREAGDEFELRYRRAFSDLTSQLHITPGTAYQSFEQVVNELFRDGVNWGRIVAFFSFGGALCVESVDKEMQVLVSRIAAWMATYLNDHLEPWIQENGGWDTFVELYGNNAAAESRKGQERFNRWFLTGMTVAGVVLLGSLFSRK

Experiments:
[1] = molecular target: Bcl-XL (UniProt Q07817); experiment: co-immunoprecipitation with anti-Flag antibody, Western blot, HEK 293 cells treated with TNF-α
[2] = molecular target: Bcl-XL (UniProt Q07817); experiment: co-immunoprecipitation with anti-Flag antibody, Western blot
[3] = molecular target: Bcl-XL (UniProt Q07817); experiment: co-immunoprecipitation of Romo1-Flag with anti-Flag antibodies, Western blot, HEK 293 cells treated with TNF-α

Measured: binding

B1: Flag-tagged Romo1 (protein, not shown: small tags and cut ends)
chain: MPVAVGPYGQSQPSCFDRVKMGFVMGCAVGMAAGALFGTFSCLRIGMRGRELMGGIGKTMMQSGGTFGTFMAIGMGIRC
binds: [1] | [2] | [3]
